Values of other authors as cited in patent US12404348B2, “Bifunctional chimeric molecules for labeling of kinases with target binding moieties and methods of use thereof” (The Brigham and Women's Hospital, Inc., priority 2021, dated 2025).
For some of these results: At least one structure is not confirmed: it was looked up by name or label, or the drawing left a doubt. Some entries share one result that the patent states for a list of compounds.

What was measured:
PPARα = molecular target: T1, PPARα (Homo sapiens, UniProt Q07869); conditions: 100 μM
T1 sequence (Q07869 1-468): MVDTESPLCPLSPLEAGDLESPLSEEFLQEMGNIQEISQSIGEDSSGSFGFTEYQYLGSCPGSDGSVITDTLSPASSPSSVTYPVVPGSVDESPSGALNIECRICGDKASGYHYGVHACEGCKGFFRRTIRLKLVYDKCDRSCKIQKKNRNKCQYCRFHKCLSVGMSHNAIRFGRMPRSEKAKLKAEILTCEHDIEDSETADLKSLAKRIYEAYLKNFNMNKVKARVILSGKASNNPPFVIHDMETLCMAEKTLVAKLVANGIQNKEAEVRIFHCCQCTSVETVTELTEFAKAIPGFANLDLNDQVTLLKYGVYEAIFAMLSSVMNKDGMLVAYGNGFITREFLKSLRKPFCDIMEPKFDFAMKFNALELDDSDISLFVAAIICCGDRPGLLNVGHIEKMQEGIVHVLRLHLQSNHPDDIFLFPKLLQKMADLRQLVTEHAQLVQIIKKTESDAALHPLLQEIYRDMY

[1] = test system: Adipocyte differentiation; conditions: 10 μM
Adiponectin production = conditions: 10 μM

CC(C)(Oc1ccc(CCNC(=O)c2ccc(Cl)cc2)cc1)C(=O)O [Bezafibrate]
PPARα, fold activation (PPARα): 3.2 ± 0.5 fold

CC[C@H](Nc1ncnc2nc[nH]c12)c1nc2cccc(F)c2c(=O)n1-c1ccccc1 [Idelasilib]
residence time (EGFR, ABL, PI3K and CDK8): 7s-17 min

CN(CCOc1ccc(CC2SC(=O)NC2=O)cc1)c1ccccn1 (stereo not shown) [Rosiglitazone]
Adipocyte differentiation, % differentiation [1]: 94.4 ± 3.8% | Adiponectin production (Adiponectin production): 1398.2 ± 87.1 pg/mL
